Results: article PMC11001197, “The PII protein interacts with the Amt ammonium transport and modulates nitrate/nitrite assimilation in mycobacteria” (Frontiers in Microbiology, 2024)
No constants are given. Whether binding was seen depends on the method and setting. A result given as binding can be weak or reduced; the word gives no strength.

Sequences of proteins named here, by UniProt entry; tags and fusion partners are left off. A change or cut given only in a name is not applied to a line headed by its entry.
UniProt P9WN31: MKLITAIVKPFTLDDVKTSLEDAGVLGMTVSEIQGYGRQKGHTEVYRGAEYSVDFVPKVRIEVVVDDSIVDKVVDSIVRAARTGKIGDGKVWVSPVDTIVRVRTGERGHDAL
UniProt P9WQ65: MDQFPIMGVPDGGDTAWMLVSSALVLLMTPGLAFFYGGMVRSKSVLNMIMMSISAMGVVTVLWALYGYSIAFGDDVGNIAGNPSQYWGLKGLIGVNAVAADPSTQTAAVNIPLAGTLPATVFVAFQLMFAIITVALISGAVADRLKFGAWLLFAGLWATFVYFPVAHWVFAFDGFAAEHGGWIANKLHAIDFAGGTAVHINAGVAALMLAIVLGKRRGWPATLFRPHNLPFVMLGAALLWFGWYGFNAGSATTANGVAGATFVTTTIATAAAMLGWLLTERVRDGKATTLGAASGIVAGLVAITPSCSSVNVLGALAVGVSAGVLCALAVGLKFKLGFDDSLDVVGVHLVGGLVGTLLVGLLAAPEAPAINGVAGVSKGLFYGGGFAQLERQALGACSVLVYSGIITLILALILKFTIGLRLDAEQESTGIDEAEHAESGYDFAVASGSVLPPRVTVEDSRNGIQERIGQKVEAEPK

Biological target: M. tuberculosis PII protein (GlnB), His tag fusion (M. tuberculosis) (UniProt P9WN31)
Test: pull-down; both purified

C-terminal domain of the M. tuberculosis ammonium transporter Amt (AmtCTR), without tags (from UniProt P9WQ65) (domain or fragment)
binding: binds
